Test results from the supplement of paper PMC12819154, “High-throughput peptide-centric local stability assay extends protein–ligand identification to membrane proteins, tissues and bacteria” (Nature Structural & Molecular Biology, 2025).
The list shows a part of the results. Most entries show no effect beyond the scatter of the controls.

By UniProt entry, the sequences of proteins in these tests, tags left out. Where a name states a change or a piece, a line headed by the entry shows the natural chain unless it says otherwise.
UniProt Q8K2Q0, whole entry: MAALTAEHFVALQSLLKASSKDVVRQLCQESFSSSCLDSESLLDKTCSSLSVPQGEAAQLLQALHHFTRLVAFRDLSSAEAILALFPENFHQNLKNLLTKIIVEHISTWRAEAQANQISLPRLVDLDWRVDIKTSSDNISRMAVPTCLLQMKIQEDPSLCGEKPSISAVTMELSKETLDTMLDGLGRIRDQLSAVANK
UniProt Q8K1X1: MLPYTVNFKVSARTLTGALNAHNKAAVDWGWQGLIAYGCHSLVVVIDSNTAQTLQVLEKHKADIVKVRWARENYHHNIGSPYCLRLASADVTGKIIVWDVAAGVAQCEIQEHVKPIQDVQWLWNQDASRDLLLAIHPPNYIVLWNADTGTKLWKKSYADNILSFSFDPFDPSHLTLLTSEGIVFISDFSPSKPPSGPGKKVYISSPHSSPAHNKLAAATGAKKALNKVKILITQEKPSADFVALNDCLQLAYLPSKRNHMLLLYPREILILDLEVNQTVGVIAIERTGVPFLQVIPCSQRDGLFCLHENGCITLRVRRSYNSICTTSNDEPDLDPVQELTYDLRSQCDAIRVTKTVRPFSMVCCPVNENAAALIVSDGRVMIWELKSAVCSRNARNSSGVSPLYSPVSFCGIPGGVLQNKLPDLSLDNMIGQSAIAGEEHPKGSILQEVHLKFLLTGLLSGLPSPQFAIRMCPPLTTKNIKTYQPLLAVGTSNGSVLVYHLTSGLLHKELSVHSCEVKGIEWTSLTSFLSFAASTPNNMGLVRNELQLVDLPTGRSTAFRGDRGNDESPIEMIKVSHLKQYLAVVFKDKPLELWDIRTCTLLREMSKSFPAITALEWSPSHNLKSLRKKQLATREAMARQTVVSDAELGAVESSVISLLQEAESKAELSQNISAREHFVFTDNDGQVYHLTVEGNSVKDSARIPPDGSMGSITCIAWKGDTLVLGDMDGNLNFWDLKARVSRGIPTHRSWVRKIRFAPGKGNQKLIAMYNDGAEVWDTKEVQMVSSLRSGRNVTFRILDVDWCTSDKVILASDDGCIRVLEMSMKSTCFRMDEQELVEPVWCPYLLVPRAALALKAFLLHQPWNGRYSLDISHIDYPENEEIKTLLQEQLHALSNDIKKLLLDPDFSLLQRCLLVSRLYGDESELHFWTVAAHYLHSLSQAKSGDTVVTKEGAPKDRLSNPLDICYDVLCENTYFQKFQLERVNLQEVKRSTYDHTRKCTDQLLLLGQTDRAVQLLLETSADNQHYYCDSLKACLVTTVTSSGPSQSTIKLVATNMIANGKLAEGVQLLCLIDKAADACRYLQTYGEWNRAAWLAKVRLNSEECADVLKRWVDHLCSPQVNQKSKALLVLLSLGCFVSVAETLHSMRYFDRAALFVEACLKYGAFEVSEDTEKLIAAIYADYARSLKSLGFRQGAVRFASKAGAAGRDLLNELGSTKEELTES
UniProt Q8R1S0: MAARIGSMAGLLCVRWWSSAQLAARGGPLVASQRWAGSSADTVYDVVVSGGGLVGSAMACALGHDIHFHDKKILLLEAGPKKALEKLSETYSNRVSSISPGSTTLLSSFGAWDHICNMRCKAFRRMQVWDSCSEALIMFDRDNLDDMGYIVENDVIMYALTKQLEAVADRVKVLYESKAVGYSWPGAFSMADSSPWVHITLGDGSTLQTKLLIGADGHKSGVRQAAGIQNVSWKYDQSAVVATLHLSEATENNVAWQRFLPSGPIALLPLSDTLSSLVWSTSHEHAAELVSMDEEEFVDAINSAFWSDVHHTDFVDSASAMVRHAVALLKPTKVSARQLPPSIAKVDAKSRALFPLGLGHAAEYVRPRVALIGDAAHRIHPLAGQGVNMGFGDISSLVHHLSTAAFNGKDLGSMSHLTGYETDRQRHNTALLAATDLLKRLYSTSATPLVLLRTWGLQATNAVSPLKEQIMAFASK
UniProt Q8K4R4: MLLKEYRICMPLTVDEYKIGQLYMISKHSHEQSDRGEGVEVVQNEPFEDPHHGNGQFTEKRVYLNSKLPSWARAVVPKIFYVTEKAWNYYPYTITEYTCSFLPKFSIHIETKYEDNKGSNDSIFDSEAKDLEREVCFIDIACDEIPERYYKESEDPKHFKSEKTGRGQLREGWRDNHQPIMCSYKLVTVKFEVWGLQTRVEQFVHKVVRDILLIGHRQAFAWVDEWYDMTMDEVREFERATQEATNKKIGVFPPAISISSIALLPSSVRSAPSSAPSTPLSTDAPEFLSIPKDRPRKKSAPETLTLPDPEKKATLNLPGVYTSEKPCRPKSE
UniProt Q8K353: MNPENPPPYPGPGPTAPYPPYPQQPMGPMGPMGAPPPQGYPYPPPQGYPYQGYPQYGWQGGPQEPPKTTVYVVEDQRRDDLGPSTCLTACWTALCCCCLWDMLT
UniProt Q8R0A7: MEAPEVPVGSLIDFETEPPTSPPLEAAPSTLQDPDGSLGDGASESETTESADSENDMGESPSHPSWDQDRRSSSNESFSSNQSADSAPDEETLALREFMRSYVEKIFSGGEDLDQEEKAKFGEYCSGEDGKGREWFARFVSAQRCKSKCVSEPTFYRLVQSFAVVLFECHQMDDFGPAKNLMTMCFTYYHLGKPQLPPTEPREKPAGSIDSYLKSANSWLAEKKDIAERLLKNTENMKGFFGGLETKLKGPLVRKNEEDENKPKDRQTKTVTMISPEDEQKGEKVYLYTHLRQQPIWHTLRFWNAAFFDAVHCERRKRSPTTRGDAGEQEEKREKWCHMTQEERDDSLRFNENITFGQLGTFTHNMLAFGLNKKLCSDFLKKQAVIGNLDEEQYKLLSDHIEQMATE
UniProt Q8R1K1: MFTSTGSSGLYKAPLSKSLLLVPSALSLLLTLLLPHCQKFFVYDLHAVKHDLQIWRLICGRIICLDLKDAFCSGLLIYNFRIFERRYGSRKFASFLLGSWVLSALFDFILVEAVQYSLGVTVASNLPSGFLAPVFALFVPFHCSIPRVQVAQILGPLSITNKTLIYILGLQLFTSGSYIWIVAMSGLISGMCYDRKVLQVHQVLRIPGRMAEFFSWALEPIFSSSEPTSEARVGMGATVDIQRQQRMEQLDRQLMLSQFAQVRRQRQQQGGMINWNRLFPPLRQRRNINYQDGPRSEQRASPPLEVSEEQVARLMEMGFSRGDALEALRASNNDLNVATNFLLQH
UniProt Q8R0S2: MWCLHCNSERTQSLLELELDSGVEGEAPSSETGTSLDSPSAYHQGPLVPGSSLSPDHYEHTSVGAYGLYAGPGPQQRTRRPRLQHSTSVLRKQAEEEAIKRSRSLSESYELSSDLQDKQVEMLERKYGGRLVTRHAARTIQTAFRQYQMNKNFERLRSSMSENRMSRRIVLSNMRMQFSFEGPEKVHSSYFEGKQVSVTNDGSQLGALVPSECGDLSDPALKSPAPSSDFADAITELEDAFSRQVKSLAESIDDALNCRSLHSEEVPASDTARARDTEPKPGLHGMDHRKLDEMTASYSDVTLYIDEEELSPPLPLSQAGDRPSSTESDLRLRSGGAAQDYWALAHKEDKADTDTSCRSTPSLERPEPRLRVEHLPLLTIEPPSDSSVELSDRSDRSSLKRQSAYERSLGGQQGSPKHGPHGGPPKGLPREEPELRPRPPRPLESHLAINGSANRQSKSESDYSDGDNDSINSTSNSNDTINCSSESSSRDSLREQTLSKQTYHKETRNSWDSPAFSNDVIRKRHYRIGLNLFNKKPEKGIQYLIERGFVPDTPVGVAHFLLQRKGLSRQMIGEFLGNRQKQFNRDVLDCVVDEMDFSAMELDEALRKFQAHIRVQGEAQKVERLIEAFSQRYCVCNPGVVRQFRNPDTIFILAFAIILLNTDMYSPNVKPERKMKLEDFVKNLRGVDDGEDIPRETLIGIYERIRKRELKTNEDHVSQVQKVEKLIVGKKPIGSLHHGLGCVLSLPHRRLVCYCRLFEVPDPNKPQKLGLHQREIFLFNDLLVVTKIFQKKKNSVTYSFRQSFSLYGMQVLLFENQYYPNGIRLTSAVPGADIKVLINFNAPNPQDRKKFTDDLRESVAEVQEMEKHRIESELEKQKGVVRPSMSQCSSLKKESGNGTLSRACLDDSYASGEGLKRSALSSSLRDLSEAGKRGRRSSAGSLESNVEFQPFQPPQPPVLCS
UniProt Q8R1C6: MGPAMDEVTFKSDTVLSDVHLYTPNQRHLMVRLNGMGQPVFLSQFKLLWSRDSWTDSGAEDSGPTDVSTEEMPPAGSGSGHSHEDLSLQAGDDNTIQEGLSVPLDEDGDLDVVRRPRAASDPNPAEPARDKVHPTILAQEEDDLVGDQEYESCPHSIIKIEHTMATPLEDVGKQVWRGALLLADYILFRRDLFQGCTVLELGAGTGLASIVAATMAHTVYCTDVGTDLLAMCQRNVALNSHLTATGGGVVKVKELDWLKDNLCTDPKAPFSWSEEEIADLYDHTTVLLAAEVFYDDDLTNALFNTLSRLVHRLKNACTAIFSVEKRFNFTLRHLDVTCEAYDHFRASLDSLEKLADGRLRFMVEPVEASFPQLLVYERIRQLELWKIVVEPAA
UniProt Q8K441: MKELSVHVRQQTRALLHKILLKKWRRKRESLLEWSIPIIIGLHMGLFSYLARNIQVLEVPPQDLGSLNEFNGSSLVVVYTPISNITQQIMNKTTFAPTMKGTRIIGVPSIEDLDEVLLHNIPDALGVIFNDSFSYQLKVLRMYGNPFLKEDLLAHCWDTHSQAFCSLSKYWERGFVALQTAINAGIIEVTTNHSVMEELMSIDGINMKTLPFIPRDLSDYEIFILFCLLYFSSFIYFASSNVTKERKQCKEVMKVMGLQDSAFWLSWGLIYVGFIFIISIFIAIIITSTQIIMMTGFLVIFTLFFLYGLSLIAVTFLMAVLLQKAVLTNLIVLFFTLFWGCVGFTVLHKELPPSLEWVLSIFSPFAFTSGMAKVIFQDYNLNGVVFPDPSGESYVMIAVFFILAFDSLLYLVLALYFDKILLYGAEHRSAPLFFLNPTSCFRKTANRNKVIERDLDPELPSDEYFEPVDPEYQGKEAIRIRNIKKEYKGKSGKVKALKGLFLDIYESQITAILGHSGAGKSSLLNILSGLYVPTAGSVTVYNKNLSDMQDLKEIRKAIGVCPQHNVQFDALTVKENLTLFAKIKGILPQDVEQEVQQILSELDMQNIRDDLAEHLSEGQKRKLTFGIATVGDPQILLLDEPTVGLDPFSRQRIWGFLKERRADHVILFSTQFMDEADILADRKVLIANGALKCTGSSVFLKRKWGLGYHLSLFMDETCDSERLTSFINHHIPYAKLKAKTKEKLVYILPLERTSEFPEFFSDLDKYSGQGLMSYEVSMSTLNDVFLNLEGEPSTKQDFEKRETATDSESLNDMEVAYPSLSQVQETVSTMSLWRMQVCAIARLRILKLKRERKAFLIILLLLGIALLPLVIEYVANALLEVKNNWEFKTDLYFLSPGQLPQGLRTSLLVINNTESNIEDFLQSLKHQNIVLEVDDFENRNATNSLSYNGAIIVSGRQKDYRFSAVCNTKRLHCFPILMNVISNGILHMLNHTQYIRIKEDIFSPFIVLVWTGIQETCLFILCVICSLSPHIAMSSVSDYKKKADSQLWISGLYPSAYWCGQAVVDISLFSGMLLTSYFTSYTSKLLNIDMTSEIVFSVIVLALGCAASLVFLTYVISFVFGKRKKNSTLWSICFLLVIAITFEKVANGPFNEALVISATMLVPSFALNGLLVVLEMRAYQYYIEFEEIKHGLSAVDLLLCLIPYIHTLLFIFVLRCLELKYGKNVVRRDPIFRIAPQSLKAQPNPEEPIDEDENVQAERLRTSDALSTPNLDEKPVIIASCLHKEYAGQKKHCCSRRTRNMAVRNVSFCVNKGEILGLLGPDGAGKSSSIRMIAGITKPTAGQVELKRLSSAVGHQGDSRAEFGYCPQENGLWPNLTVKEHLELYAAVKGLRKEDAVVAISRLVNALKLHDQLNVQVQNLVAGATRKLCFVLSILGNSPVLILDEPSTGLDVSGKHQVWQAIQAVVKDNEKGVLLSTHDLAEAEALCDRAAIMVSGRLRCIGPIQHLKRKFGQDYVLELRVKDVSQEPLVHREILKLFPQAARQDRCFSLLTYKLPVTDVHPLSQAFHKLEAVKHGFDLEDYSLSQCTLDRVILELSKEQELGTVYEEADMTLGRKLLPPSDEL

What follows are targets tested with CN[C@@H]1C[C@H]2O[C@@](C)([C@@H]1OC)n1c3ccccc3c3c4c(c5c6ccccc6n2c5c31)C(=O)NC4 [staurosporine] (assay: log2 fold change of tryptic peptide abundance, ligand vs vehicle (limited proteolysis) (log2 ratio); higher = more trypsin-susceptible (destabilized)). Details: ligand concentration: 20 uM; sample: mouse liver crude lysate; replicate design: treated separately.

Row | Target | log2 fold change
1 | UniProt Q8K2Q0 (peptide sequence: IRDQLSAVANK, peptide start residue: 188) | -0.373
2 | UniProt Q8K2C7 (peptide sequence: QHEEKTTEEVQDTDR, peptide start residue: 267) | 0.471
3 | UniProt Q8K1X1 (peptide sequence: YLQTYGEWNR, peptide start residue: 1081) | 0.306
4 | UniProt Q8R1S0 (peptide sequence: EQIMAFASK, peptide start residue: 468) | 0.214
5 | UniProt Q8K4R4 (peptide sequence: ATLNLPGVYTSEKPCRPK, peptide start residue: 313) | -0.0934
6 | UniProt Q8K353 (peptide sequence: TTVYVVEDQRR, peptide start residue: 68) | -0.234
7 | UniProt Q8R0A7 (peptide sequence: LCSDFLK, peptide start residue: 375) | 0.313
8 | UniProt Q8R1K1 (peptide sequence: LMEMGFSR, peptide start residue: 314) | 0.127
9 | UniProt Q8R0S2 (peptide sequence: GVVRPSMSQCSSLK, peptide start residue: 879) | -0.512
10 | UniProt Q8R1C6 (peptide sequence: SDTVLSDVHLYTPNQR, peptide start residue: 12) | 0.105
11 | UniProt Q8K441 (peptide sequence: GLRKEDAVVAISR, peptide start residue: 1390) | -0.337

Reprinted at random: 2 records from the list.
Row | Target | log2 fold change
3 | UniProt Q8K1X1 (peptide sequence: YLQTYGEWNR, peptide start residue: 1081) | 0.306
11 | UniProt Q8K441 (peptide sequence: GLRKEDAVVAISR, peptide start residue: 1390) | -0.337
